Some of the results follow.

Protein sequences, listed by entry. Tags and fused reporters are not part of them.
UniProt Q0JBA9, entry or part of it: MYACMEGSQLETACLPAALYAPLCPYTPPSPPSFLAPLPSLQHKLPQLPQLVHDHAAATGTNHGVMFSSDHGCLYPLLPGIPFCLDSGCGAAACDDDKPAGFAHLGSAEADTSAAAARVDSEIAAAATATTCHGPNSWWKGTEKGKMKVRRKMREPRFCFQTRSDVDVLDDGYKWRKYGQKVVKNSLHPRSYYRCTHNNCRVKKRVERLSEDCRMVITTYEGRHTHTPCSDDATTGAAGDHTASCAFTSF

This assay addresses OsWRKY34 (Oryza sativa, UniProt Q0JBA9 1-250). The assay is described as follows: protein-binding microarray (RPBM); PBS, 2% BSA, 51.3 ng/ul salmon testes DNA, 50 uM zinc acetate, 200 nM TF, 25 C, 1 h; high values mean tight binding. To be noted: protein: recombinant; tags: N-terminal polyhistidine and DsRed monomer fusion (pET32a); label: CyDye5-dUTP incorporated in the synthesized complementary strand; 3' TTTTT single-stranded linker to array surface; dsDNA, one strand shown. An outline of the steps: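 Transcription factors were made in E. coli BL21-CodonPlus as N-terminal fusions to a polyhistidine tag and DsRed, then purified on Ni–NTA. After primer extension with Cy5-dUTP and blocking with 2% BSA, a custom Agilent array was exposed for 1 h at 25 °C to 200 nM protein in PBS, 2% BSA, salmon testes DNA and 50 µM zinc acetate. Washed arrays were scanned on an Axon 4000B, and the binding signal is per-feature fluorescence intensity in arbitrary units.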
On to “ACACTCGGCGCGCTCTTGTACACCAATTCACACACACATTCGGAGTCACCTAGTGCAG”, for which the binding signal is 14500 fluorescence intensity (a.u.).
Take “CCTCTCGTCTCGCTCGTCGCGGCCACCTCTCTTTCTCTCTCGGAGTCACCTAGTGCAG”: the binding signal is 11400 fluorescence intensity (a.u.).
For “TGTCTTTGCCCTTTTATTTCGTAGTAGGTCATAACTAAACCGGAGTCACCTAGTGCAG” the value was 8340 fluorescence intensity (a.u.); for “TCGTATCCTAGCCCATATATTTTTACAGATTCGGGTTCAACGGAGTCACCTAGTGCAG”, 11000 fluorescence intensity (a.u.).
Consider “GTAGTGGTGGAGCTCAGGACAGATAGTGCTACGAGGGAACCGGAGTCACCTAGTGCAG”, for which the binding signal is 8120 fluorescence intensity (a.u.).
For “CGTTGGTCTTCCCGCCGCTCGCCATTGACCATCGCCCATGCGGAGTCACCTAGTGCAG” the value was 8070 fluorescence intensity (a.u.).
As to “AAGTTTATATTGTTTAGCTATCTTACACATTATTTTTACTCGGAGTCACCTAGTGCAG”, the binding signal was 8780 fluorescence intensity (a.u.).
For “CCGGACCGGCCGCCGCTTACGATTATAATGATCATTATTTCGGAGTCACCTAGTGCAG” the value was 8530 fluorescence intensity (a.u.).
As for “ATGGAGTACAGTTGCGCTGTTTGTTTCAGCCTTTCAGGTGCGGAGTCACCTAGTGCAG”, the binding signal was 9290 fluorescence intensity (a.u.).
Take “AATCTATGCCATTATAATTTGGTACCACAATGATTGATCACGGAGTCACCTAGTGCAG”: the binding signal was 9040 fluorescence intensity (a.u.).
For “AGACGTTTTGACTTTGGTACTGCTTTAAGTTTGACCAAATCGGAGTCACCTAGTGCAG” the value was 9960 fluorescence intensity (a.u.); for “GACCTAGCTTACTACCGTACCGACCTGCATGCTAGCTACCCGGAGTCACCTAGTGCAG”, 8690 fluorescence intensity (a.u.); for “GTCTGCTGTCTGCACTCTGGTGATCTAATGTATCATTTTCCGGAGTCACCTAGTGCAG”, 11400 fluorescence intensity (a.u.).
For “TCCAGCTGCTGCATCCACCTCACTGCCGTCGCCGCCGCCGCGGAGTCACCTAGTGCAG” the value was 8400 fluorescence intensity (a.u.).
Take “TCTGCGAGGAAGAACCCATTCAGATTACGCTGCATTTTTTCGGAGTCACCTAGTGCAG”: the binding signal was 8660 fluorescence intensity (a.u.).
For the sequence “GTCCCATGCAAATGCAACAATATTTTCTGCATGCATTTTTCGGAGTCACCTAGTGCAG”, the binding signal was 8230 fluorescence intensity (a.u.).
For “CGCCCTCCGCCGCTCGCCCGCCGACGCCGCCGCTCCGCCTCGGAGTCACCTAGTGCAG” the value was 10500 fluorescence intensity (a.u.).
Regarding “GTTTCTCTCCGTTTCGTTTCGGGCCTGTTCACTTTGATGTCGGAGTCACCTAGTGCAG”, the binding signal was 9210 fluorescence intensity (a.u.).
For “GAGAACCTTCAGATTTTTTTTCTTTTCTCTTCGGTAACCACGGAGTCACCTAGTGCAG” the value was 9500 fluorescence intensity (a.u.); for “ATATGCTATTTTCACGTTCCATTAATTATGTCATAAACTGCGGAGTCACCTAGTGCAG”, 9090 fluorescence intensity (a.u.).
Next, “CTGAGTTCCCAAGAGTTCTCTTTCTGCACATAGTCCCTACCGGAGTCACCTAGTGCAG”: 8960 fluorescence intensity (a.u.); “TTCTAGTATTCCCCTTGAAATTGGCATGGTTATTTCATCCCGGAGTCACCTAGTGCAG”: 10500 fluorescence intensity (a.u.).
Regarding “GCCGCTAACCCTTGTACTGCGCCGCCGCCTGCTGCACTGACGGAGTCACCTAGTGCAG”, the binding signal is 14700 fluorescence intensity (a.u.).
For “GTCCGCGTCTCATCAGAATAAGCAGCTAGCAGCATCTGCACGGAGTCACCTAGTGCAG”, the binding signal is 9090 fluorescence intensity (a.u.).
With “ACCATTATACACTCACATTTTTCAATATTTTTTCTTAATTCGGAGTCACCTAGTGCAG”, the binding signal was 9040 fluorescence intensity (a.u.).
For “GCGAACTCCTCCGCCGTGTTCCGAATCTCGCCAAAGCTTGCGGAGTCACCTAGTGCAG” the value was 9510 fluorescence intensity (a.u.).
Next, “ATAAACCAGTGACTAATTTATTGCCTGCTGCACACGCGCTCGGAGTCACCTAGTGCAG”: 8990 fluorescence intensity (a.u.).
Next, “TAAACACCATTTCCACCCCTACATACACTCACACACACGTCGGAGTCACCTAGTGCAG”: 9420 fluorescence intensity (a.u.); “TGATGATTTAACTGTGTTGCATGAATTCATTCCTATTTGACGGAGTCACCTAGTGCAG”: 8400 fluorescence intensity (a.u.); “GTGTGTGTATGACAGGTGGGACCATATATTAATAGTGTAGCGGAGTCACCTAGTGCAG”: 8230 fluorescence intensity (a.u.).
As for “AATCTAACTTCTCTATATTCTCCTGTGCTTACAACTCATACGGAGTCACCTAGTGCAG”, the binding signal was 8860 fluorescence intensity (a.u.).
With “GTAAGAAAAAGTCAACGGTATCATCTATTGAAAAACGTAGCGGAGTCACCTAGTGCAG”, the binding signal was 8150 fluorescence intensity (a.u.).
Turning to “TTCGGGGATTGAATTTAGGCTATCTGTTGGAGAGAGGGGTCGGAGTCACCTAGTGCAG”, the binding signal is 8050 fluorescence intensity (a.u.).
Next, “GTGTGTTGGAGCTGCCGGTGTGTGGGTGGGGTTATTTTTTCGGAGTCACCTAGTGCAG”: 25100 fluorescence intensity (a.u.); “TCTGTAGCTCGCTATTCTTTTCTCTTCTTTTATTTCCTTGCGGAGTCACCTAGTGCAG”: 8850 fluorescence intensity (a.u.).
Regarding “ACTCAACCCAGTACACACACTCCACCTAATCTTCTTCTCCCGGAGTCACCTAGTGCAG”, the binding signal was 10100 fluorescence intensity (a.u.).
As for “TACCCTTATACTTTTTTATTACTTGCCTGCTACTCTACTTCGGAGTCACCTAGTGCAG”, the binding signal was 11300 fluorescence intensity (a.u.).
With “ATCCTGCATCATCTTCCACGGCTCTCCAACCCCAAAAAATCGGAGTCACCTAGTGCAG”, the binding signal is 8460 fluorescence intensity (a.u.).
Next, “GACCAAGGCAGAGAATTTGCCACTGCTTTTTGCTATACCTCGGAGTCACCTAGTGCAG”: 8210 fluorescence intensity (a.u.); “TCTATCTCTCGTCAACGCTTGCTCGCCATCGCATCATGTACGGAGTCACCTAGTGCAG”: 10500 fluorescence intensity (a.u.); “ATTAGTACGCAAAGCTGCTCTAAGGCCTGGTTCTTTTTCTCGGAGTCACCTAGTGCAG”: 9430 fluorescence intensity (a.u.).
For “GACTGCATGTCTGCATCTGTGTGCCCTCATCGACGTTCTCCGGAGTCACCTAGTGCAG” the value was 9860 fluorescence intensity (a.u.).

(Values after PMC7819943, “Rice protein-binding microarrays: a tool to detect cis-acting elements near promoter regions in rice”.)
